Assay results as given in publication doi:10.1101/2025.11.14.688441.
No constants are given. Whether binding was seen depends on the method and setting. Binding seen in cells or lysates may run through a third protein. Here binding means that the protein was enriched with, or labelled near, the bait; the list need not be complete.

Amino acid sequences for entries named in this document (tags omitted).
UniProt Q8BX22: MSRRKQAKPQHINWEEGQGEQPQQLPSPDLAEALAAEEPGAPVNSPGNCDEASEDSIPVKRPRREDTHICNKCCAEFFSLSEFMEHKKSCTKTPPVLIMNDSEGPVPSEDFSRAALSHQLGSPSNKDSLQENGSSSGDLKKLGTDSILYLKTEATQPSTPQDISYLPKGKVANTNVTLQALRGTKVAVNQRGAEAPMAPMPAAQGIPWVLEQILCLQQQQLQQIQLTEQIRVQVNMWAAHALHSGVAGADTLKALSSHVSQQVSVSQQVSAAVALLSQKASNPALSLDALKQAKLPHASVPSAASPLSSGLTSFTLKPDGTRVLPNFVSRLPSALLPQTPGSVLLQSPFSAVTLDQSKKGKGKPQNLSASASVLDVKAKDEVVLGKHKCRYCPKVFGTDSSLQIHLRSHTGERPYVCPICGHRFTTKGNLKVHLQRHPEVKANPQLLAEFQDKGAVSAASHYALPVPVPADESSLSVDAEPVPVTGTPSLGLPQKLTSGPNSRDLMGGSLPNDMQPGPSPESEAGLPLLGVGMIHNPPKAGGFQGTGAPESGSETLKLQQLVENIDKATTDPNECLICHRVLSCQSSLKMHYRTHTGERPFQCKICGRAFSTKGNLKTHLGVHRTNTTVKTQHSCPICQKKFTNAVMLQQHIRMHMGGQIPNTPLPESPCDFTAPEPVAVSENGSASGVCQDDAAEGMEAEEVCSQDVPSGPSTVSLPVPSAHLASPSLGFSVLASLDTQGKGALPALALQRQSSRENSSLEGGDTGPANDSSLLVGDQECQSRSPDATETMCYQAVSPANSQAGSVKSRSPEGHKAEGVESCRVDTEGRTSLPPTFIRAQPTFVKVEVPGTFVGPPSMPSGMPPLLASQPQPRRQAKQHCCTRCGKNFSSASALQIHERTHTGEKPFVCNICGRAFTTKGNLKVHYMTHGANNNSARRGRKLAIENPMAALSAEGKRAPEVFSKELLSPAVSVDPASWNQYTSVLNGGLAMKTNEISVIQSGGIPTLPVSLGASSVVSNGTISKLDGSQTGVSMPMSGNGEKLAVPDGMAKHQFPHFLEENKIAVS

B1: SALL1 (protein, UniProt Q9ER74 1-1322)
chain: MSRRKQAKPQHFQSDPEVASLPRRDGDTEKGQPSRPTKSKDAHVCGRCCAEFFELSDLLLHKKSCTKNQLVLIVNESPASPAKTFPPGPSLNDPDDQMKDAANKADQEDCSDLSEPKGLDREESMEVEVPVATTTTTTTGGSGGSGGSTLSGVTNITTPSCHSGCSSGTSAITTSLPQLGDLTTLGNFSVINSNVIIENLQSTKVAVAQFSQEARCGGASGGKLLISTLMEQLLALQQQQIHQLQLIEQIRHQILLLASQSADLPAAPSIPSQGTLRTSANPLTTLSSHLSQQLAVAAGLAQSLASQSANISGVKQLPHVQLPQSSSGTSIVPPSGGTSPNMSIVTAAVPTPSSEKVASNAGASHVSSPAVSASSSPAFAISSLLSPESNPLLPQPTPANAVFPTPLPNIATTAEDLNSLSALAQQRKSKPPNVTAFEAKSTSDEAFFKHKCRFCAKVFGSDSALQIHLRSHTGERPFKCNICGNRFSTKGNLKVHFQRHKEKYPHIQMNPYPVPEHLDNVPTSTGIPYGMSIPSEKPVTSWLDTKPVLPTLTTSVGLPLPPTLPSLTPFIKTEEPAPIPISHSAASPQGSVKSDSGAPDLATRNPSGVPEEVEGSAVPPFGGKGEESNMASSAVPTAGNSTLNSPVADGGPGGTTFTNPLLPLMSEQFKAKFPFGGLLDSAQASETSKLQQLVENIDKKATDPNECIICHRVLSCQSALKMHYRTHTGERPFKCKICGRAFTTKGNLKTHYSVHRAMPPLRVQHSCPICQKKFTNAVVLQQHIRMHMGGQIPNTPVPDNYPESMESDTGSFDEKNFDDLDNFSDENMEECPEGSIPDTPKSADASQDSLSSSPLPLEMSSIAALENQMKMINAGLAEQLQASLKSVENGSMEGDVLTNDSSSVGGDMESQSAGSPAISESTSSMQALSPSNSTQEFHKSPGMEEKPQRVGPGEFANGLSPTPVNGGALDLTSSHAEKIIKEDSLGILFPFRDRGKFKNTACDICGKTFACQSALDIHYRSHTKERPFICTVCNRGFSTKGNLKQHMLTHQMRDLPSQLFEPSSNLGPNQNSAVIPANSLSSLIKTEVNGFVHVSPQDSKDAPTSHVPQGPLSSSATSPVLLPALPRRTPKQHYCNTCGKTFSSSSALQIHERTHTGEKPFACTICGRAFTTKGNLKVHMGTHMWNSTPARRGRRLSVDGPMTFLGGNPVKFPEMFQKDLAARSGSGDPSSFWNQYTAALSNGLAMKANEISVIQNGGIPPIPGSLGSGSSPISGLTGNVEKLGNSEPSAPLAGLEKMASSENGTNFRFTRFVEDSKEIVTS
B2: SALL2 (protein, UniProt Q9QX96 1-1004)
chain: MSRRKQRRPQQLISDCEGPSASENGDASEEDHPQVCAKCCAQFSDPTEFLAHQNSCCTDPPVMVIIGGQENPSNSSASSAPRPEGHSRSQVMDTEHSNPPDSGSSGAPDPTWGPERRGEESSGQFLVAATGTAAGGGGGLILASPKLGATPLPPESTPAPPPPPPPPPPPGVGSGHLNIPLILEELRVLQQRQIHQMQMTEQICRQVLLLGSLGQTVGAPASPSELPGTGAASSTKPLLPLFSPIKPAQTGKTLASSSSSSSSSGAEPPKQAFFHLYHPLGSQHPFSVGGVGRSHKPTPAPSPALPGSTDQLIASPHLAFPGTTGLLAAQCLGAARGLEAAASPGLLKPKNGSGELGYGEVISSLEKPGGRHKCRFCAKVFGSDSALQIHLRSHTGERPYKCNVCGNRFTTRGNLKVHFHRHREKYPHVQMNPHPVPEHLDYVITSSGLPYGMSVPPEKAEEEAGTPGGGVERKPLVASTTALSATESLTLLSTGTSTAVAPGLPTFNKFVLMKAVEPKSKADENTPPGSEGSAIAGVADSGSATRMQLSKLVTSLPSWALLTNHLKSTGSFPFPYVLEPLGASPSETSKLQQLVEKIDRQGAVAVASTASGAPTTSAPAPSSSASGPNQCVICLRVLSCPRALRLHYGQHGGERPFKCKVCGRAFSTRGNLRAHFVGHKTSPAARAQNSCPICQKKFTNAVTLQQHVRMHLGGQIPNGGSALSEGGGAAQENSSEQSTASGPGSFPQPQSQQPSPEEEMSEEEEEDEEEEEDVTDEDSLAGRGSESGGEKAISVRGDSEEVSGAEEEVATSVAAPTTVKEMDSNEKAPQHTLPPPPPPPDNLDHPQPMEQGTSDVSGAMEEEAKLEGTSSPMAALTQEGEGTSTPLVEELNLPEAMKKDPGESSGRKACEVCGQSFPTQTALEEHQKTHPKDGPLFTCVFCRQGFLDRATLKKHMLLAHHQVPPFAPHGPQNIATLSLVPGCSSSIPSPGLSPFPRKDDPTMP
B3: SALL3 (protein, UniProt Q62255 1-1320)
chain: MSRRKQAKPQHLKSDEELPPQDGASEHGVPGDGAEDADSGSESRSGSEETSVCEKCCAEFFKWADFLQHKKTCTKNPLVLIVHDDEPAPPSEDFPEPSPASSPSDRTESEVAEEVAPTEGSEVKAATKEAEPMDVEVSTDKGPPGPSVPPPPPALPPQPEPAAFSMPSTNVTLETLLSTKVAVAQFSQGARAGGTTGAGGSVGAVAIPMILEQLVALQQQQIHQLQLIEQIRSQVALMSRQPGPPLKPSASAPGTASVQLQGLTPHAALQLSAGPATASAGSGSTLPAAFDGPQHLSQPASGTSTPCSTSAAPPDSGAHPACSTGPAPGAVAAASSTVGNAVQPQNASTPPALGPGPLLSSASNLPNPLLPQTSSSSVIFPNPLVSIAATANALDPLSALMKHRKGKPPNVSVFEPKASAEDPFFKHKCRFCAKVFGSDSALQIHLRSHTGERPFKCNICGNRFSTKGNLKVHFQRHKEKYPHIQMNPYPVPEYLDNVPTCSGIPYGMSLPPEKPVTTWLDSKPVLPTVPTSVGLQLPPTVPGTHNYTDSPSITPVSRSPQRPSPASSECTSLSPGLNNTESGITVRPESPQPLLGGPSLTKAEPVSLPCTSTRTGDAPVVGGQVSGLPTSAATAVTDSACTSLGSPGLPAVSDQFKAQFPFGGLLDSMQTSETSKLQQLVENIDKKMTDPNQCVICHRVLSCQSALKMHYRTHTGERPFKCKICGRAFTTKGNLKTHFGVHRAKPPLRVQHSCPICQKKFTNAVVLQQHIRMHMGGQIPNTPLPEGLQEAMDADLPFDEKNAETLSSFDDDIDENSMEEDSELKDTASDSSKPLLSYSGSCPPSPPSVISSIAALENQMKMIDSVMNCQQLANLKSVENGSGESDRLSNDSSSAVGDLESRSAGSPALSESSSSQALSPAHSNGESFRSKSPGLGHQEDPQEIPLKTERLDSPPPGPGNGGALDLTAGHPGRPLIKEEAPFSLLFLSRERGKCASTVCGVCGKPFACKSALEIHYRSHTKERRFVCTVCRRGCSTMGNLKQHLLTHKLKELPSQVFDPNFTLGPSHSTPSLASSPAPTMIKMEVNGHSKAIALGEGPALPAGVQVPTGPQTVMSPGLAPMLAPPPRRTPKQHNCQSCGKTFSSASALQIHERTHTGEKPFGCTICGRAFTTKGNLKVHMGTHMWNNAPARRGRRLSVENPMALLGGDALKFSEMFQKDLAARAMNVDPSFWNQYAAAITNGLAMKNNEISVIQNGGIPQLPVSLGGGAIPPLGAMASGVDKARTGSSPPIVSLDKASSETGASRPFARFIEDNKEIGIN
B4: CDK2AP1 (protein, UniProt O35207 1-114)
chain: MSYKPNLTAHMPAAALNAGSVHSPSTSMATSSQYRQLLSDYGPPSLGYTQGTGNSQVPQSKYAELLAIIEELGKEIRPTYAGSKSAMERLKRGIIHARSLVRECLAETERNARS
B5: BEND3 (protein, UniProt Q6PAL0 1-825)
chain: MNSTEISEDVEEVLKNNPVKAEGSDATLDCSRNSRASEKHLLESVLTALHDSSKRKQLDSDGQPDSVPSVKRRRLIPEALLAGMRTRENSSPCQGNGEPASRGRSGSCAWPAEEEPSTEATVPSYKKPLYGISHKIMEKKNPPSGDLLSPYELFEKANSSSGPSPLRLLSESQKRECGVGVATDGDLNIYFLIQKMFYMLNGLTTNMSQLHSKMDLLSLEVSRVKKQVSPSELVAKFQPPPEYQLTASELKQIAEQSLSCGDLACRLLLQLFPELFSDVDFSRGCSACGFAAKRKLESLHLQLIRNYVEVYYPNVKDTAVWQAECLPQLNDFFSRFWAQREMEDSQPGGQVTNFFEADQVDAGHFLDNKDQEEALSLDRSSTIASDHVVDTQDLTEFLDEASSPGEFAVFLLHRLFPELFDHRKLGEQYSCYGDGGKQELDPQRLQIIRNYTEIYFPDMQEEEAWLQQCAQRINDELEGLGLEGGSEGEAPRDDCYDSSSLPDDISVVKVEDNFEGERPGRRSKKIWLVPIDFDKLEIPQPDFEMPGSDCLLSKEQLRSIYESSLSIGNFASRLLVHLFPELFTHENLRKQYNCSGSLGKKQLDPARIRLIRHYVQLLYPRAKNDRVWTLEFVGKLDERCRRRDTEQRRSYQQQRKVHVPGPECRDLASYAINPERFREEFEGPPLPPERSSKDFCKIPLDELVVPSPDFPVPSPYLLSDKEVREIVQQSLSVGNFAARLLVRLFPELFTTENLRLQYNHSGACNKKQLDPTRLRLIRHYVEAVYPVEKMEEVWHYECIPSIDERCRRPNRKKCDILKKAKKVEK

These binders were tested against SALL4 (wild-type, endogenous in mouse embryonic stem cells) (mouse (endogenous in E14Ju09 ESCs)) (UniProt Q8BX22) (assay: affinity purification with mass spectrometry).
B1 was tested, and the binding was “binds”. With B2 the binding was “binds”. For B3, the binding was “binds”. In the case of B4, the binding is reported as “binds”. In the case of B5, the binding is reported as “binds”.
